We go through one molecule from patent publication EP0523013B1, “Use of benzimidazoline-2-oxo-1-carboxylic acid derivatives in the treatment of organic mental diseases” (BOEHRINGER INGELHEIM ITALIA S.p.A., priority 1991, dated 1993).

The test system of the experiment is scopolamine-induced impairment of passive avoidance response. The experiment in a line: passive avoidance test, scopolamine-induced impairment. Also noted: species or system Male Sprague Dawley rats. As to conditions: rat, in vivo. The method, then:
Male Sprague Dawley rats weighing 175-200 g were used. The animals were kept in a regulated environment (20 ± 1°C, 50-55% humidity and 12 hours light-dark cycle, light on at 7.00 a.m.) and maintained with standard pellet diet. The apparatus used for the passive avoidance test was composed of a dark compartment (30x30x30 cm) with a grid floor and a compartment (30x30x30 cm) illuminated from above by a 20 W daylight lamp, the 2 compartments being separated by a guillotine-type door (10x8 cm). Scrambled electric shocks were delivered to the grid floor by an isolated stimulator.
Rats were divided in groups of 10 animals. • a) Training: each rat was placed gently in the lighted compartment and 10 sec later the door was opened. As soon as the rat had moved into the dark compartment and the door had been shut, a 1.6 mA foot-shock was applied for 1 sec. The rat was immediately removed from the apparatus and returned to the home cage. • b) Retention: the retention test was carried out 24 hours later by an observer unaware of the given treatment. Each rat was placed into the lighted compartment again and the step-through latency was recorded. […] The experimental data were evaluated statistically by means of Mann Whitney-U test, comparing all treatments, including controls, with scopolamine group.

Turning to `CN1[C@@H]2C[C@@H](OC(=O)[C@H](CO)c3ccccc3)C[C@H]1[C@@H]1O[C@@H]12` [Scopolamine, scopolamine, reference compound], the “step-through latency in the retention test” value is listed as “significantly decreased”.
